Columns and labels:
[1] = Spreading area of a drop on the volar forearm; type: in vivo; details: 10 ul drop, six subjects
[2] = Odor evaluated olfactorily by a human subject

| Structure (SMILES) | Spreading Area, cm after 1 min. [1] | Spreading Area, cm after 3 min. [1] | Spreading Area, cm after 5 min. [1] | Odor [2] |
| --- | --- | --- | --- | --- |
| CCCCCCC(=O)OCC(C)(C)COC(=O)CCCCCC [neopentyl glycol diheptanoate] | 2.1 cm | 3.2 cm | 3.7 cm | Mild, |
| CCCCCCC(C)OC(=O)CCC(=O)OC(C)CCCCCC (centres unmarked) [bis(1-methylheptyl) butanedioate] | 2.0 cm | 2.7 cm | 3.2 cm | Mild, |

Source: patent US20200255367A1, “Diesters for Personal Care Applications Derived from 1-Methylheptyl Alcohol” (Inolex Investment Corporation, priority 2016, published 2020)
